The values that follow come from PubChem BioAssay AID1347426 (Functional Genomics Laboratory (NCATS/FGL), 2020).

Among all 31,000 sequences or so, about 1,400 (4.5%) were called active.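 How the source made its calls: active means median seed-adjusted z-score above 1 or below -1; inactive means the rest.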 Some of the results follow.

This experiment in a line: Novel Modifiers of Survival Motor Neuron (SMN) Protein: Gene Identification via Genome-wide siRNA Screen.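 Further: luminescence tracks full-length SMN protein made from the SMN2 reporter.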 Particulars: HEK293T SMN2-luciferase reporter, siRNA knockdown, 72 h; actives lie on both sides. In a few lines:
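HEK293T cells stably carrying an SMN2 promoter/splicing cassette–luciferase reporter were reverse-transfected with 1 pmol siRNA per well (druggable-genome library, 3 siRNAs per gene) and grown 72 h at 37 °C. Luminescence, normalized to negative-control siRNA and log10-transformed, was scored as MAD.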
Take CGCAGGCGAAGUUACUCAATT against TXNRD2: the median seed-adjusted z-score was inactive: 0.459.

As to CCAGAUCAAGGUUCCAGGATT against TRMT1, the median seed-adjusted z-score is inactive: -0.224.

Take GGAUCUUAGCAACAUCAAUTT against SMURF2: the median seed-adjusted z-score was inactive: 0.351.

Take GGAUGAAAGUCCAUAUGGUTT against HSD17B14: the median seed-adjusted z-score was inactive: 0.386.

Consider GGAUUUUUCCAAGGCUAAATT against NUDC, for which the median seed-adjusted z-score is inactive: -0.227.

Turning to GCCUUGGGUCUACUAAUAATT against TNFRSF1B, the median seed-adjusted z-score is inactive: -0.483.

Take GGCUCAUAACUGACAAGAUTT against SLC22A14: the median seed-adjusted z-score was inactive: 0.215.

As to GGUGGAUGAUCAUGACUCATT against ZC3HAV1, the median seed-adjusted z-score is inactive: 0.522.

CCGCUGCAACAACCAGAAATT against LRP3: the median seed-adjusted z-score was active: -1.05.

Regarding GAAGGACCAAUGUACGUCATT against ERN2, the median seed-adjusted z-score was inactive: 0.526.

For the sequence GCCUGAAUCAGGAACAUCATT against NLP, the median seed-adjusted z-score was inactive: -0.186.

In the case of GGACAGCAAUGAGAAUGCATT against PCDHGA1, the median seed-adjusted z-score is inactive: -0.319.

As to CUCACUAUUUGAUAAAUGATT against CX3CR1, the median seed-adjusted z-score was inactive: -0.292.

For GGGAGAAGGGAUAACCCUATT against CD74, the median seed-adjusted z-score is inactive: 0.0748.

As for GAUGUAUAAAGGGUUCCAATT against TIMP1, the median seed-adjusted z-score was inactive: -0.0422.

Consider CGACAGUCUUGCUGAAAAATT against NOTO, for which the median seed-adjusted z-score was inactive: -0.193.

Consider GCUGAUCUAUCACAAACCATT against SERPINA2, for which the median seed-adjusted z-score was inactive: 0.285.

Turning to GUGUGGAUAUGAUCAUGGATT against POT1, the median seed-adjusted z-score was inactive: 0.459.

Regarding GGAUCUCACUUUAGAUAAUTT against RSC1A1, the median seed-adjusted z-score is inactive: 0.438.

Take CCACUUAAGCUGUCAUGUATT against VEZF1: the median seed-adjusted z-score is inactive: 0.974.

As to CCACAUGCUUCAAACAUCATT against TOR1A, the median seed-adjusted z-score was inactive: -0.231.

GAACAGAUGGAUUACCUUUTT against IL2: the median seed-adjusted z-score was inactive: 0.0694.

Regarding GUACAUAGAUUAGGUUUUATT against POLR2J, the median seed-adjusted z-score was inactive: 0.0437.

With GCCUUGCUAGUGUACCCAATT against GNPTG, the median seed-adjusted z-score was inactive: -0.401.

Regarding GACCUAUAGACUUCACAAATT against OPHN1, the median seed-adjusted z-score is inactive: 0.692.

As for GGCUUUGAGCAUAAGAUCATT against MAP3K10, the median seed-adjusted z-score was inactive: 0.201.

Turning to GAACAUCUUAUUUCACGAATT against FBXW11, the median seed-adjusted z-score is inactive: 0.206.

Turning to CCUCGAACCUUAUGAGACATT against ZNF479, the median seed-adjusted z-score was inactive: -0.269.

Consider GAACCGCACUCUUCCCAAATT against S100A13, for which the median seed-adjusted z-score was inactive: 0.153.
